Measured values reported in the supplement of paper PMC10849652.
Some of the results follow.

Amino acid sequences for entries named in this document (tags omitted). A change or cut given only in a name is not applied to a line headed by its entry.
UniProt Q14145, whole entry, looked up: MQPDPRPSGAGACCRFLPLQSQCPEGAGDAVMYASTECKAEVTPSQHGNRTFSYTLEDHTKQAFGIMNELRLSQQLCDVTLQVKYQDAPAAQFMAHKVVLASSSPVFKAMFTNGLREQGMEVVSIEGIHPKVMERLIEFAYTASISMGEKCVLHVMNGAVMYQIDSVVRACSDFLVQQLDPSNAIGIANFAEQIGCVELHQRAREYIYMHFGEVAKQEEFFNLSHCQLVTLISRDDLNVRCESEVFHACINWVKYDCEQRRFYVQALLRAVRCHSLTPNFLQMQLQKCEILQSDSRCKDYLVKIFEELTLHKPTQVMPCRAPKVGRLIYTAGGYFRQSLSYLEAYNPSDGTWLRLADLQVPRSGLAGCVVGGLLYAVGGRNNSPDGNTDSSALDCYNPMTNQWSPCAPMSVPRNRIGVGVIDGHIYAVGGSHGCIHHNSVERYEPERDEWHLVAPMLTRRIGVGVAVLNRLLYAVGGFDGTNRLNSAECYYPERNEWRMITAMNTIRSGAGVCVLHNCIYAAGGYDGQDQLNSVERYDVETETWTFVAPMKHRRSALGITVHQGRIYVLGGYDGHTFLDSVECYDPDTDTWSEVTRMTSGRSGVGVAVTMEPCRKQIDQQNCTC
UniProt O60870: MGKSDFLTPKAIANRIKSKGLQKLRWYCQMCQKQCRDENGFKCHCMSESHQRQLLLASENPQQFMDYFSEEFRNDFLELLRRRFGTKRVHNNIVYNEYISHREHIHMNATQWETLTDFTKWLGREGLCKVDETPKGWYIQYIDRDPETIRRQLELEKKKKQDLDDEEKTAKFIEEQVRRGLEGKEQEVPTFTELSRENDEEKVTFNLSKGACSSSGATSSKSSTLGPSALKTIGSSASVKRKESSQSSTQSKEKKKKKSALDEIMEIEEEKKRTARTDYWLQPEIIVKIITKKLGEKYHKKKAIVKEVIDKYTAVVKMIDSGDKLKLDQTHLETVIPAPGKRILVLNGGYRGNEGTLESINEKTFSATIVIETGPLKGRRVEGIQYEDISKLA
UniProt Q2VIQ3: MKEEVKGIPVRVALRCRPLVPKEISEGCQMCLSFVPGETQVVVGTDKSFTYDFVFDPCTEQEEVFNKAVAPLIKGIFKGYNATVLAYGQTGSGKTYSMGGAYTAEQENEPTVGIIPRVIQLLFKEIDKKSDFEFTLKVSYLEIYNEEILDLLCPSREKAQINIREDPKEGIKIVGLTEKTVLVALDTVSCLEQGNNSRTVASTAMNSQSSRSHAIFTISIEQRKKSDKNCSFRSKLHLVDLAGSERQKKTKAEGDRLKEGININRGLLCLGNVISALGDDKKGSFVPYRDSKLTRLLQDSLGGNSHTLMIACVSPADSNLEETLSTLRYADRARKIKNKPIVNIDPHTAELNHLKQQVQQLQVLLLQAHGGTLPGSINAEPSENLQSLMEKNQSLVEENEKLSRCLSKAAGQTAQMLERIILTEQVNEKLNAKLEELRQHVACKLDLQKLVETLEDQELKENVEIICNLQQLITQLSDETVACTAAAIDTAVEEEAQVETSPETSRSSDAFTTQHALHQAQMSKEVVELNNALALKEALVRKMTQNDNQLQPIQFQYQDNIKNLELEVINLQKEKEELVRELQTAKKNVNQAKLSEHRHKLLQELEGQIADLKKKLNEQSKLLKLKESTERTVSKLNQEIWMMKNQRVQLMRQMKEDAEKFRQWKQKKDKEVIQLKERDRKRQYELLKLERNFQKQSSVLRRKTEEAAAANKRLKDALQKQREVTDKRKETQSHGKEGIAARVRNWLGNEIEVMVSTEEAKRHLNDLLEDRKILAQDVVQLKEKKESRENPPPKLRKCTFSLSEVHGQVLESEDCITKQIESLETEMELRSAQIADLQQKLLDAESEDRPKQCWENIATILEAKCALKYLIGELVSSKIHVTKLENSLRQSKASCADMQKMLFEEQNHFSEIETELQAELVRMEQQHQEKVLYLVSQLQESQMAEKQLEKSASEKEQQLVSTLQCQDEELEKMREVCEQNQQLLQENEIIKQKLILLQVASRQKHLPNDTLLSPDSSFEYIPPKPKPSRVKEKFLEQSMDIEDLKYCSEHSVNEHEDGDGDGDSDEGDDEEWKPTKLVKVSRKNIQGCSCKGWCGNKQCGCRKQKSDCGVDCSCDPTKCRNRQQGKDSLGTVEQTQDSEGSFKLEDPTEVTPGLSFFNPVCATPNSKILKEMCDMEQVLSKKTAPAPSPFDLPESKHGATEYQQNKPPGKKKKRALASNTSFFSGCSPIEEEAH
UniProt P11279: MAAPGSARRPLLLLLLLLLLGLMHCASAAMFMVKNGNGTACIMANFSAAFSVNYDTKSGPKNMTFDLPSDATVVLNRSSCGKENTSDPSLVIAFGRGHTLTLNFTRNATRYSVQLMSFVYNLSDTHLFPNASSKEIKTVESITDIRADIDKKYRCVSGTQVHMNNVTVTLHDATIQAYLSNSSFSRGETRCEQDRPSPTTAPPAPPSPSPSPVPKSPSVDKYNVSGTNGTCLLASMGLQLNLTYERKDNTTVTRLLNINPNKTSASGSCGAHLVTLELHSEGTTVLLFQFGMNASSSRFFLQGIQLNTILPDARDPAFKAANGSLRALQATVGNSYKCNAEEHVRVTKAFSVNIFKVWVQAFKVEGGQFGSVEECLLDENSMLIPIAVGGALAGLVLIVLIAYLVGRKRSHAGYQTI
UniProt Q71RC2, whole entry, looked up: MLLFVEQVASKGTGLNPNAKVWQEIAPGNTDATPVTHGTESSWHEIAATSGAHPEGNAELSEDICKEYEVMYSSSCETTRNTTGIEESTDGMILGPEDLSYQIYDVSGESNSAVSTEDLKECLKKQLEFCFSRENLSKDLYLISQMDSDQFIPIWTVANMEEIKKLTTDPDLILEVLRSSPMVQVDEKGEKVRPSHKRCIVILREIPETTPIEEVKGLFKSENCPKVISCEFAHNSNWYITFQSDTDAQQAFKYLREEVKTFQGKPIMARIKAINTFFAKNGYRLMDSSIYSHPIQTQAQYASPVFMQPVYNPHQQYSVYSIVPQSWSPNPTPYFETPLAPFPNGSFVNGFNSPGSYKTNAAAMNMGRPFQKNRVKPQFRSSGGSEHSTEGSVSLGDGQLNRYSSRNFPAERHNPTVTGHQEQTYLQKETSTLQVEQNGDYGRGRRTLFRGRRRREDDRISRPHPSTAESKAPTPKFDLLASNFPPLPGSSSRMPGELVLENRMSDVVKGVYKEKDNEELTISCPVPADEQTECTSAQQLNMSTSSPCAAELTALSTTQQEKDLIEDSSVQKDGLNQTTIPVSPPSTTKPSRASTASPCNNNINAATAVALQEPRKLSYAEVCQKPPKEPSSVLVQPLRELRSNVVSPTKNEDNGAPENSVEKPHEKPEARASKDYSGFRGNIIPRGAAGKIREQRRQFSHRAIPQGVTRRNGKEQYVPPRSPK
UniProt Q9BQ90: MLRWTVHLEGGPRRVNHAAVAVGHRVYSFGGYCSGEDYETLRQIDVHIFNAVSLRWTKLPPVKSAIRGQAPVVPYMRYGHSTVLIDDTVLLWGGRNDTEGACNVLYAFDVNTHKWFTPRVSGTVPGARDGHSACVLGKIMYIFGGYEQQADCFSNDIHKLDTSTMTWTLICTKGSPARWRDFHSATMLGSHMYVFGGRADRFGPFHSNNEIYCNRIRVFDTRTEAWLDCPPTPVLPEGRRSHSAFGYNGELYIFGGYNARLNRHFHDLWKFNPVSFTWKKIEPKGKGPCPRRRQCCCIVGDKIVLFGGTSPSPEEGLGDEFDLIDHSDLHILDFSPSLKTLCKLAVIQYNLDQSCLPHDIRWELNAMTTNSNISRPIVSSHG
UniProt O00629, whole entry, looked up: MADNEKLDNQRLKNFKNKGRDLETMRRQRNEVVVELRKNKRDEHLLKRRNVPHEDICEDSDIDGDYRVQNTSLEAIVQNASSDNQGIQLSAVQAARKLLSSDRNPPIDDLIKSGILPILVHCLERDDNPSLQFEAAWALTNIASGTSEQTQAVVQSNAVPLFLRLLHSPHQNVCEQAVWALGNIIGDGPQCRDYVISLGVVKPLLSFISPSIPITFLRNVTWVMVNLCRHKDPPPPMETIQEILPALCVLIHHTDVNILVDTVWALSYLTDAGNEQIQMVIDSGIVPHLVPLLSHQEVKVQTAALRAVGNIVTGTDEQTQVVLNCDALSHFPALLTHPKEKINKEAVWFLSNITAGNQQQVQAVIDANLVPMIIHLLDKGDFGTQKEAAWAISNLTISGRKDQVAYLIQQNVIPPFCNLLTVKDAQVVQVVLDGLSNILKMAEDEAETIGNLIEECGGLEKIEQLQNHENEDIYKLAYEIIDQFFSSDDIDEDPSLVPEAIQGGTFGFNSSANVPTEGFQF
UniProt Q96A73: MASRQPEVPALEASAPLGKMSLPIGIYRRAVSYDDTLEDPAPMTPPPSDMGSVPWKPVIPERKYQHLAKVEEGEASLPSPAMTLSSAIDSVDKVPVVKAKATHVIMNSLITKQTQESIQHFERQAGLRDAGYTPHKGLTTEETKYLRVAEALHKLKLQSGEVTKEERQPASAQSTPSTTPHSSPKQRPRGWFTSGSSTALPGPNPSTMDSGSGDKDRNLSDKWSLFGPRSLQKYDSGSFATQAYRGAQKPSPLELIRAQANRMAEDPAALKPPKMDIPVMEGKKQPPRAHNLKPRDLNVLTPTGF
UniProt Q07866: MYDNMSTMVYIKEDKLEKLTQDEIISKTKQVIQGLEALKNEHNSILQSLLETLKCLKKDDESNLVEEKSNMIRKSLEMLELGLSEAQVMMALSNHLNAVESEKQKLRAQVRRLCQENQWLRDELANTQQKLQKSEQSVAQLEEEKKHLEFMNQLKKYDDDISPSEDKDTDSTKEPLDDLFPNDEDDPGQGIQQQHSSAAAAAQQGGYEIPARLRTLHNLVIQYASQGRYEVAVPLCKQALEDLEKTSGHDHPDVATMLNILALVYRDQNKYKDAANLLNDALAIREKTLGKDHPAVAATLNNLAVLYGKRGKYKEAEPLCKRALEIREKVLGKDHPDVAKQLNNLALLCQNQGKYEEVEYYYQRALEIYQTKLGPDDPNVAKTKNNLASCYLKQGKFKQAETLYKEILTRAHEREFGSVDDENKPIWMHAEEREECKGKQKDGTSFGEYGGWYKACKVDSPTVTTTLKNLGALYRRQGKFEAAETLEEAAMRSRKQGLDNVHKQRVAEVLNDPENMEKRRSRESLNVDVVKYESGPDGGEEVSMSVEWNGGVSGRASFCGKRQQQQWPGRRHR
UniProt Q8IYS2: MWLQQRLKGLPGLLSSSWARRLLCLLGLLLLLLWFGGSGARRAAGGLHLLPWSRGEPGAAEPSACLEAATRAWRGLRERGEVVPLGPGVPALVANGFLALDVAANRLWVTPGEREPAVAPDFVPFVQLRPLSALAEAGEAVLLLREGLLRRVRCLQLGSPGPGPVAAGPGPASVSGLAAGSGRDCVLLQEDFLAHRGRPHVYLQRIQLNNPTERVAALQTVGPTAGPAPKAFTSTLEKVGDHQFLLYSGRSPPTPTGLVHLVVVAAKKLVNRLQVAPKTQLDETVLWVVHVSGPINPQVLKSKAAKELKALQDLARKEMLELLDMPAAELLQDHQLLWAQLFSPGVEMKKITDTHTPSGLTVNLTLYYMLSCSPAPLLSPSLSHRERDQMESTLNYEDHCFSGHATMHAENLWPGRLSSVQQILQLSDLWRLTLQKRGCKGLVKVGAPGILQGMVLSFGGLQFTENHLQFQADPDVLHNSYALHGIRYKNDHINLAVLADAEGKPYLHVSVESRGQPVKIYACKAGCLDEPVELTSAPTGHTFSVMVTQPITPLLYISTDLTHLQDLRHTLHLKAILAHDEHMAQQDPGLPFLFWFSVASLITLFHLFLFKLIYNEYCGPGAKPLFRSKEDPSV

What was measured:
Test in all cases: log2 fold change, soluble protein after heating vs DMSO (PISA); higher = thermal stabilisation; K562 lysate, 10 uM; active = over 0.2 and 3.5 SD of the protein, either way, in both replicates (recomputed)
alvocidib = compound: CN1CC[C@H](c2c(O)cc(O)c3c(=O)cc(-c4ccccc4Cl)oc23)[C@H](O)C1 [alvocidib]
Outline: (§1)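 K562 pellets were dounce-homogenised in PBS pH 7.4 containing 1 mM MgCl2, and the crude extract, at 1 mg/mL protein, was exposed to 10 μM compound for 30 min. Aliquots were heated for 3 min across 48°C-58°C, pooled, brought to 0.5% NP-40 at 4°C and spun at 21,000xg for 90 min, with the supernatant taken as soluble protein. TMTpro 16plex LC-MS/MS with equalised channel sums quantified that protein. Values are log-two fold changes in thermal stability relative to solvent controls, taken from duplicates.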

Tubastatin A = compound: CN1CCc2c(c3ccccc3n2Cc2ccc(C(=O)NO)cc2)C1 [Tubastatin A]
Outline: as §1

[1] = compound: CNC(=O)C1=CC=CC=C1NC2=NC(=NC=C2Cl)NC3=C(C=C(C=C3)N4CCOCC4)OC
Outline: as §1

defactinib = compound: CNC(=O)c1ccc(Nc2ncc(C(F)(F)F)c(NCc3nccnc3N(C)S(C)(=O)=O)n2)cc1 [defactinib]
Outline: as §1

[2] = compound: CNc1nc(-c2ccc3c(N)n[nH]c3c2)cc(N2C[C@@H](C(=O)NC3CCCCC3)CC[C@H]2C)n1
Outline: as §1

encorafenib = compound: COC(=O)N[C@@H](C)CNc1nccc(-c2cn(C(C)C)nc2-c2cc(Cl)cc(NS(C)(=O)=O)c2F)n1 [encorafenib]
Outline: as §1

[3] = compound: COC(=O)[C@H](CCSC)NC(=O)C1=C(C=C(C=C1)NC[C@H](CS)N)C2=CC=CC=C2
Outline: as §1

alisertib = compound: COc1cc(Nc2ncc3c(n2)-c2ccc(Cl)cc2C(c2c(F)cccc2OC)=NC3)ccc1C(=O)O [alisertib]
Outline: as §1

[4] = compound: COc1cc2nc(-c3cc(F)ccc3O)nc(N[C@@H]3CNC[C@H]3C(C)(C)O)c2cc1OC
Outline: as §1

gefitinib = compound: COc1cc2ncnc(Nc3ccc(F)c(Cl)c3)c2cc1OCCCN1CCOCC1 [gefitinib]
Outline: as §1

lapatinib = compound: CS(=O)(=O)CCNCc1ccc(-c2ccc3ncnc(Nc4ccc(OCc5cccc(F)c5)c(Cl)c4)c3c2)o1 [lapatinib]
Outline: as §1

pictilisib = compound: CS(=O)(=O)N1CCN(Cc2cc3nc(-c4cccc5[nH]ncc45)nc(N4CCOCC4)c3s2)CC1 [pictilisib]
Outline: as §1

crizotinib = compound: C[C@@H](Oc1cc(-c2cnn(C3CCNCC3)c2)cnc1N)c1c(Cl)ccc(F)c1Cl [crizotinib]
Outline: as §1

[5] = compound: C[C@H](C1=CC=C(C=C1)C(=O)NC2=C3C=CNC3=NC=C2)N
Outline: as §1

duvelisib = compound: C[C@H](Nc1ncnc2nc[nH]c12)c1cc2cccc(Cl)c2c(=O)n1-c1ccccc1 [duvelisib]
Outline: as §1

gandotinib = compound: Cc1cc(Nc2cc(CN3CCOCC3)c3nc(C)c(Cc4ccc(Cl)cc4F)n3n2)n[nH]1 [gandotinib]
Outline: as §1

tozasertib = compound: Cc1cc(Nc2cc(N3CCN(C)CC3)nc(Sc3ccc(NC(=O)C4CC4)cc3)n2)n[nH]1 [tozasertib]
Outline: as §1

doramapimod = compound: Cc1ccc(-n2nc(C(C)(C)C)cc2NC(=O)Nc2ccc(OCCN3CCOCC3)c3ccccc23)cc1 [doramapimod]
Outline: as §1

bafetinib = compound: Cc1ccc(NC(=O)c2ccc(CN3CC[C@H](N(C)C)C3)c(C(F)(F)F)c2)cc1Nc1nccc(-c2cncnc2)n1 [bafetinib]
Outline: as §1

[6] = compound: Cc1cccc(CC(=O)N2CCc3c2ccc(-c2cn(C)c4ncnc(N)c24)c3F)n1
Outline: as §1

Row | Target | log2 fold change (alvocidib) | log2 fold change (Tubastatin A) | log2 fold change [1] | log2 fold change (defactinib) | log2 fold change [2] | log2 fold change (encorafenib) | log2 fold change [3] | log2 fold change (alisertib) | log2 fold change [4] | log2 fold change (gefitinib) | log2 fold change (lapatinib) | log2 fold change (pictilisib) | log2 fold change (crizotinib) | log2 fold change [5] | log2 fold change (duvelisib) | log2 fold change (gandotinib) | log2 fold change (tozasertib) | log2 fold change (doramapimod) | log2 fold change (bafetinib) | log2 fold change [6]
1 | KEAP1 (UniProt Q14145) | inactive: -0.024 | inactive: -0.019 | inactive: -0.008 | inactive: 0.014 | inactive: 0.017 | inactive: 0.043 | inactive: -0.094 | inactive: 0.012 | inactive: 0.013 | inactive: 0.018 | inactive: -0.005 | inactive: -0.023 | inactive: -0.007 | inactive: 0 | inactive: 0.026 | inactive: 0.019 | inactive: -0.017 | inactive: 0.01 | inactive: 0 | inactive: 0.008
2 | KIN (UniProt O60870) | inactive: -0.049 | inactive: 0.055 | inactive: -0.033 | inactive: 0.044 | inactive: 0.074 | inactive: -0.037 | inactive: 0.048 | inactive: 0.02 | inactive: 0.041 | inactive: 0.039 | inactive: 0 | inactive: -0.004 | inactive: -0.083 | inactive: -0.004 | inactive: -0.008 | inactive: -0.032 | inactive: -0.011 | inactive: 0.017 | inactive: -0.045 | inactive: 0.04
3 | KPNA6 (UniProt O60684) | inactive: 0.034 | inactive: -0.089 | inactive: 0.047 | inactive: -0.032 | inactive: 0.026 | inactive: 0.019 | inactive: 0.07 | inactive: 0.005 | inactive: 0.003 | inactive: 0.003 | inactive: 0.01 | inactive: -0.006 | inactive: -0.074 | inactive: 0.027 | inactive: 0.015 | inactive: -0.092 | inactive: 0.005 | inactive: 0.056 | inactive: -0.013 | inactive: 0.017
4 | KYAT3 (UniProt Q6YP21) | inactive: -0.051 | inactive: 0.002 | inactive: 0.004 | inactive: 0.004 | inactive: -0.061 | inactive: -0.001 | inactive: -0.073 | inactive: -0.016 | inactive: -0.001 | inactive: 0.015 | inactive: -0.011 | inactive: -0.006 | inactive: 0 | inactive: -0.158 | inactive: 0.008 | inactive: 0.084 | inactive: 0.025 | inactive: -0.001 | inactive: 0 | inactive: 0.071
5 | KIF4B (UniProt Q2VIQ3) | inactive: -0.01 | active: -0.207 | inactive: 0.024 | inactive: 0.008 | inactive: -0.039 | inactive: 0.034 | inactive: 0.146 | inactive: -0.018 | inactive: -0.006 | inactive: -0.018 | inactive: 0.03 | inactive: -0.001 | inactive: -0.02 | inactive: 0.029 | inactive: -0.023 | inactive: -0.051 | inactive: -0.033 | inactive: 0.015 | inactive: -0.04 | inactive: 0.035
6 | LAMP1 (UniProt P11279) | inactive: -0.242 | inactive: 0.051 | inactive: -0.013 | inactive: -0.03 | inactive: 0.059 | inactive: 0.015 | inactive: -0.047 | inactive: 0.017 | inactive: 0.028 | inactive: 0.053 | inactive: -0.033 | inactive: -0.014 | inactive: -0.014 | active: -0.496 | inactive: 0.005 | active: 0.241 | inactive: -0.05 | inactive: -0.044 | inactive: -0.065 | inactive: 0.172
7 | LARP4 isoform 4 (UniProt Q71RC2) | inactive: -0.019 | inactive: -0.113 | inactive: 0.01 | inactive: -0.054 | inactive: -0.012 | inactive: -0.009 | inactive: 0.05 | inactive: -0.007 | inactive: -0.013 | inactive: -0.077 | inactive: -0.004 | inactive: -0.021 | inactive: -0.008 | inactive: -0.006 | inactive: -0.045 | inactive: -0.03 | inactive: -0.008 | inactive: -0.009 | inactive: 0.005 | inactive: 0.089
8 | KLHDC3 (UniProt Q9BQ90) | inactive: -0.012 | inactive: -0.062 | inactive: 0.123 | inactive: 0.079 | inactive: -0.014 | inactive: 0.123 | inactive: -0.057 | inactive: 0.018 | inactive: 0.025 | inactive: -0.05 | inactive: 0.005 | inactive: -0.003 | inactive: -0.066 | inactive: 0.128 | inactive: -0.056 | inactive: -0.043 | inactive: 0.013 | inactive: 0.001 | inactive: -0.059 | inactive: 0.045
9 | KHDC4 (UniProt Q7Z7F0) | inactive: -0.027 | inactive: 0.069 | inactive: 0.005 | inactive: 0.007 | inactive: -0.025 | inactive: -0.011 | inactive: -0.034 | inactive: -0.002 | inactive: 0.033 | inactive: -0.015 | inactive: -0.025 | inactive: -0.04 | inactive: 0.01 | inactive: 0.035 | inactive: -0.028 | inactive: -0.018 | inactive: -0.068 | inactive: 0.024 | inactive: 0.032 | inactive: -0.009
10 | KPNA4 (UniProt O00629) | inactive: -0.098 | inactive: 0.007 | inactive: 0.014 | inactive: -0.002 | inactive: 0.008 | inactive: 0.02 | inactive: -0.059 | inactive: -0.007 | inactive: 0.002 | inactive: 0.013 | inactive: 0.03 | inactive: 0.011 | inactive: -0.044 | active: -0.217 | inactive: 0.012 | inactive: 0.089 | inactive: -0.018 | inactive: 0.02 | inactive: 0.049 | inactive: 0.155
11 | KIAA1191 (UniProt Q96A73) | inactive: -0.013 | inactive: 0.012 | inactive: 0.092 | inactive: -0.057 | inactive: 0.067 | inactive: 0.03 | inactive: -0.007 | inactive: -0.024 | inactive: 0.056 | inactive: 0.001 | inactive: -0.001 | inactive: -0.03 | inactive: 0.035 | inactive: 0.048 | inactive: -0.045 | inactive: 0.017 | inactive: -0.012 | inactive: 0 | inactive: -0.013 | inactive: 0.006
12 | KMT2C isoform 3 (UniProt Q8NEZ4) | inactive: -0.025 | inactive: -0.015 | inactive: -0.017 | inactive: 0.068 | inactive: -0.019 | inactive: 0.002 | inactive: 0.001 | inactive: -0.009 | inactive: 0.028 | inactive: 0.038 | inactive: -0.055 | inactive: -0.084 | inactive: 0.029 | inactive: -0.058 | inactive: -0.022 | inactive: -0.112 | inactive: 0.048 | inactive: -0.117 | inactive: -0.203 | inactive: 0.042
13 | KLC1 isoform 6 (UniProt Q07866) | inactive: -0.015 | inactive: -0.038 | inactive: 0.02 | inactive: -0.003 | inactive: -0.018 | inactive: 0.002 | inactive: 0.002 | inactive: 0.002 | inactive: 0.014 | inactive: -0.009 | inactive: -0.011 | inactive: -0.001 | inactive: 0 | inactive: -0.009 | inactive: -0.031 | inactive: -0.073 | inactive: -0.004 | inactive: 0.026 | inactive: -0.008 | inactive: 0.005
14 | KIDINS220 isoform 4 (UniProt Q9ULH0) | inactive: -0.004 | inactive: -0.03 | inactive: 0.01 | inactive: 0.001 | inactive: -0.017 | inactive: 0.043 | inactive: -0.002 | inactive: 0.013 | inactive: 0.011 | inactive: 0.013 | inactive: -0.071 | inactive: -0.025 | inactive: -0.007 | inactive: -0.032 | inactive: -0.034 | inactive: -0.048 | inactive: 0.055 | inactive: 0.026 | inactive: 0.015 | inactive: 0.004
15 | KIF13A isoform 4 (UniProt Q9H1H9) | inactive: -0.014 | inactive: 0.035 | inactive: -0.018 | inactive: 0.009 | inactive: -0.034 | inactive: 0.02 | inactive: -0.013 | inactive: -0.064 | inactive: -0.003 | inactive: -0.043 | inactive: -0.047 | inactive: -0.008 | inactive: -0.001 | inactive: -0.023 | inactive: 0 | inactive: -0.024 | inactive: 0.051 | inactive: 0.019 | inactive: -0.016 | inactive: 0.018
16 | KIAA2013 (UniProt Q8IYS2) | inactive: 0.056 | inactive: 0.017 | inactive: 0.057 | inactive: 0.02 | inactive: 0.071 | inactive: 0.052 | inactive: 0.021 | inactive: -0.019 | inactive: -0.031 | inactive: 0.002 | inactive: -0.033 | inactive: -0.052 | inactive: 0.074 | inactive: 0.053 | inactive: -0.042 | inactive: -0.012 | inactive: -0.034 | inactive: -0.031 | inactive: -0.019 | inactive: -0.005

4 entries from above, comma-delimited.
Row,Target,log2 fold change (alvocidib),log2 fold change (Tubastatin A),log2 fold change [1],log2 fold change (defactinib),log2 fold change [2],log2 fold change (encorafenib),log2 fold change [3],log2 fold change (alisertib),log2 fold change [4],log2 fold change (gefitinib),log2 fold change (lapatinib),log2 fold change (pictilisib),log2 fold change (crizotinib),log2 fold change [5],log2 fold change (duvelisib),log2 fold change (gandotinib),log2 fold change (tozasertib),log2 fold change (doramapimod),log2 fold change (bafetinib),log2 fold change [6]
13,KLC1 isoform 6 (UniProt Q07866),inactive: -0.015,inactive: -0.038,inactive: 0.02,inactive: -0.003,inactive: -0.018,inactive: 0.002,inactive: 0.002,inactive: 0.002,inactive: 0.014,inactive: -0.009,inactive: -0.011,inactive: -0.001,inactive: 0,inactive: -0.009,inactive: -0.031,inactive: -0.073,inactive: -0.004,inactive: 0.026,inactive: -0.008,inactive: 0.005
14,KIDINS220 isoform 4 (UniProt Q9ULH0),inactive: -0.004,inactive: -0.03,inactive: 0.01,inactive: 0.001,inactive: -0.017,inactive: 0.043,inactive: -0.002,inactive: 0.013,inactive: 0.011,inactive: 0.013,inactive: -0.071,inactive: -0.025,inactive: -0.007,inactive: -0.032,inactive: -0.034,inactive: -0.048,inactive: 0.055,inactive: 0.026,inactive: 0.015,inactive: 0.004
15,KIF13A isoform 4 (UniProt Q9H1H9),inactive: -0.014,inactive: 0.035,inactive: -0.018,inactive: 0.009,inactive: -0.034,inactive: 0.02,inactive: -0.013,inactive: -0.064,inactive: -0.003,inactive: -0.043,inactive: -0.047,inactive: -0.008,inactive: -0.001,inactive: -0.023,inactive: 0,inactive: -0.024,inactive: 0.051,inactive: 0.019,inactive: -0.016,inactive: 0.018
16,KIAA2013 (UniProt Q8IYS2),inactive: 0.056,inactive: 0.017,inactive: 0.057,inactive: 0.02,inactive: 0.071,inactive: 0.052,inactive: 0.021,inactive: -0.019,inactive: -0.031,inactive: 0.002,inactive: -0.033,inactive: -0.052,inactive: 0.074,inactive: 0.053,inactive: -0.042,inactive: -0.012,inactive: -0.034,inactive: -0.031,inactive: -0.019,inactive: -0.005
